# Assay results from PubChem BioAssay AID504834 (National Center for Advancing Translational Sciences (NCATS), 2011).
# Among all 320,000 compounds or so, about 22,000 (6.9%) were called active. Inconclusive results, whose numbers are uncertain, are shown with a selection of clear calls. The call rests on the fitted dose curve; in most records, active means well fitted inhibition curve with a large enough effect; inconclusive means small, poorly fitted or top-dose-only effect, or another doubt; inactive means no such curve, though single readings can be large or run the other way. A potency beside an inconclusive call is a rough fit, not a confirmed value.
# Experiment: Primary qHTS for delayed death inhibitors of the malarial parasite plastid, 96 hour incubation
# Conditions: P. falciparum luciferase reporter growth; series mostly up to 28.7 µM; activity change, negative = inhibition: at the top concentration
# Summary of the method: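 Parasite growth measured via integrated firefly luciferase reporter in P. falciparum. Infected erythrocytes at 2% hematocrit, 0.05% parasitemia final were treated 96 hours at 37 C under 5% CO2, and luminescence was read.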
# On the % scale 0 is the no-effect control and ±100 the full control effect; potency means the concentration at half of the fitted maximal effect.
SMILES,Potency,"activity change, negative = inhibition"
Fc1ccc(-c2csc3ncnc(Nc4ccc(N5CCOCC5)cc4)c23)cc1,"inconclusive: 18.5 µM [inhibitor, single point]",
C=CCn1c(=O)c2ccccc2n2c(SCc3nc(N)nc(Nc4ccccc4C)n3)nnc12,"inconclusive: 18.5 µM [inhibitor, single point]",
CCOC(=O)c1cccc(NC(=O)CCn2nc(C)c(S(=O)(=O)N3CCCCC3)c2C)c1,"inconclusive: 4.65 µM [inhibitor, partial curve]",
CCOC(=O)c1sc2nc(N3CCOCC3)c3c(c2c1N)CCC3,"inconclusive: 18.5 µM [inhibitor, single point]",
COc1ccc(C(=O)N2CCN(C(=O)C3COc4ccccc4O3)CC2)cc1OC (configuration not stated),"inconclusive: 13.1 µM [inhibitor, partial curve]",
CCOCCCN(C(=O)c1snc(C(N)=O)c1N)C(C(=O)NC1CCCC1)c1ccc(O)cc1 (configuration not stated),"inconclusive: 13.1 µM [inhibitor, partial curve]",
Cc1ccc(NC(=O)O/N=C/c2c(C)nn(C(C)(C)C)c2C)cc1Cl,,inactive: 305%
CS(=O)(=O)N(CC(=O)NCc1ccc2c(c1)OCO2)Cc1ccccc1,"inconclusive: 0.522 µM [inhibitor, partial curve, poor fit]",
O=C(CCCc1ccccc1)Nc1ccc(S(=O)(=O)N2CCOCC2)cc1,active: 10.4 µM,
O=C(Nn1cnc2ccccc2c1=O)c1cccc(Cl)c1,,inactive: 27%
Cc1cc(C(=O)O[C@H]2[C@H](Cc3ccccc3)NS(=O)(=O)[C@H]3C[C@@H]4C=C[C@]23O4)ccc1[N+](=O)[O-],"inconclusive: 18.5 µM [inhibitor, single point]",
COc1ccc(-n2c(/C=C3\C(=O)N(C)c4ccccc43)nc3ccccc3c2=O)cc1,active: 11.7 µM,
CC(=O)Nc1ccc(S(=O)(=O)NCCc2cc3c(C)ccc(C)c3[nH]c2=O)cc1,"inconclusive: 0.0041 µM [inhibitor, full curve, poor fit]",
CN(C)C(CNC(=O)c1ccc(NC(=O)CC#N)cc1)c1ccccc1 (configuration not stated),"inconclusive: 9.28 µM [inhibitor, single point]",
CC1(C2CC2)NC(=O)N(CC(=O)N2CCN(S(=O)(=O)c3ccc(F)c(F)c3)CC2)C1=O (configuration not stated),"inconclusive: 11.7 µM [inhibitor, single point]",
CC(=O)c1ccc(N2C(=NC(=O)CCC3CCCC3)SC3CS(=O)(=O)CC32)cc1 (configuration not stated),,inactive: 4.69%
Cc1cc(NC(=O)CC(C)C)c(=O)n(Cc2cccc(F)c2)c1,"inconclusive: 18.5 µM [inhibitor, single point]",
O=c1c2[nH]c3cccc(Cl)c3c2ncn1Cc1ccco1,,inactive: 27.6%
O=C(NCc1ccccc1)C1CCN(S(=O)(=O)c2cc([N+](=O)[O-])ccc2Cl)CC1,,inactive: 42.5%
Cc1ccc2cc3c(N)c(C(=O)Nc4c(C)[nH]c(=O)[nH]c4=O)sc3nc2c1,"inconclusive: 18.5 µM [inhibitor, single point]",
Cc1cc(NC(=O)c2cccc(S(=O)(=O)N(C)C)c2)n(-c2ccccn2)n1,active: 4.65 µM,

# Ten entries from above, with bars between the fields:
SMILES | Potency | activity change, negative = inhibition
CCOCCCN(C(=O)c1snc(C(N)=O)c1N)C(C(=O)NC1CCCC1)c1ccc(O)cc1 (configuration not stated) | inconclusive: 13.1 µM [inhibitor, partial curve] | 
CS(=O)(=O)N(CC(=O)NCc1ccc2c(c1)OCO2)Cc1ccccc1 | inconclusive: 0.522 µM [inhibitor, partial curve, poor fit] | 
O=C(CCCc1ccccc1)Nc1ccc(S(=O)(=O)N2CCOCC2)cc1 | active: 10.4 µM | 
Cc1cc(C(=O)O[C@H]2[C@H](Cc3ccccc3)NS(=O)(=O)[C@H]3C[C@@H]4C=C[C@]23O4)ccc1[N+](=O)[O-] | inconclusive: 18.5 µM [inhibitor, single point] | 
CC(=O)Nc1ccc(S(=O)(=O)NCCc2cc3c(C)ccc(C)c3[nH]c2=O)cc1 | inconclusive: 0.0041 µM [inhibitor, full curve, poor fit] | 
CC(=O)c1ccc(N2C(=NC(=O)CCC3CCCC3)SC3CS(=O)(=O)CC32)cc1 (configuration not stated) |  | inactive: 4.69%
Cc1cc(NC(=O)CC(C)C)c(=O)n(Cc2cccc(F)c2)c1 | inconclusive: 18.5 µM [inhibitor, single point] | 
O=c1c2[nH]c3cccc(Cl)c3c2ncn1Cc1ccco1 |  | inactive: 27.6%
Cc1ccc2cc3c(N)c(C(=O)Nc4c(C)[nH]c(=O)[nH]c4=O)sc3nc2c1 | inconclusive: 18.5 µM [inhibitor, single point] | 
Cc1cc(NC(=O)c2cccc(S(=O)(=O)N(C)C)c2)n(-c2ccccn2)n1 | active: 4.65 µM | 

# Further results follow:

SMILES,Potency,"activity change, negative = inhibition"
CCc1nnc(NC(=O)C2=CCN(S(=O)(=O)c3ccc(F)cc3)CC2)s1,"inconclusive: 9.28 µM [inhibitor, single point]",
CCCCSc1nsc(NC(C)=O)n1,"inconclusive: 14.7 µM [inhibitor, single point]",
CCOC(=O)c1sc(Nc2nc3ccc(OC)cc3s2)cc1C,"inconclusive: 13.1 µM [inhibitor, single point]",
CC(=O)c1cc(C)ccc1OC(=O)CN1C(=O)c2ccccc2C1=O,,inactive: 7.15%
CN(Cc1ccc(F)cc1)C(=O)COc1ccccc1-c1ccccc1,"inconclusive: 4.15 µM [inhibitor, partial curve, poor fit]",
CCOC(=O)c1nnc(-c2cccs2)nc1Oc1ccc(Cl)cc1,"inconclusive: 4.65 µM [inhibitor, partial curve]",
C=CCc1cccc(/C=N/NC(=O)c2ccccc2Br)c1O,"inconclusive: 13.1 µM [inhibitor, partial curve, poor fit]",
Cc1c(C(=O)O)[nH]c2c1C(=O)CC(c1ccc(Cl)cc1)C2 (configuration not stated),"inconclusive: 18.5 µM [inhibitor, single point]",
C/C=C/C(=O)OCC(=O)Nc1cc([N+](=O)[O-])ccc1Cl,,inactive: -13.7%
O=C(Nc1c[nH]c2c(Cl)cccc2c1=O)N1CCN(c2ccccn2)CC1,"inconclusive: 9.28 µM [inhibitor, partial curve]",
CCOC(=O)c1ccc(NC(=S)NCCCN2CCN(C3CCCCC3)CC2)cc1,"inconclusive: 20.8 µM [inhibitor, partial curve, poor fit]",
O=c1[nH]c(/C=C\c2cccc(Cl)c2)nc(O)c1[N+](=O)[O-],"inconclusive: 11.7 µM [inhibitor, single point]",
Cc1[nH]c2ccc(C(=O)N3CCCCC3)cc2c1C,,inactive: 14.6%
O/N=C/c1cccc[n+]1CCCCCC[n+]1ccccc1/C=N/O,"inconclusive: 18.5 µM [inhibitor, single point]",
COc1ccc(-c2n[nH]c(C)c2-c2ccccc2OC)c(O)c1,active: 11.7 µM,
COc1ccc(-c2nc3ncccc3o2)cc1NC(=O)c1ccco1,"inconclusive: 13.1 µM [inhibitor, partial curve]",
COc1cccc(C(=O)Nc2c3c(nn2-c2cccc(C)c2C)CS(=O)(=O)C3)c1OC,"inconclusive: 0.0657 µM [inhibitor, full curve, poor fit]",
CCOC(=O)COn1c(=O)c(-c2cccs2)[n+]([O-])c2ccccc21,"inconclusive: 4.15 µM [inhibitor, single point]",
CC(=O)Oc1ccc(C(=O)Nc2ccc3c(c2)C(=O)N(CCC(=O)O)C3=O)cc1,active: 11.7 µM,
Cn1cccc1CC(=O)N/N=C/c1ccco1,"inconclusive: 0.928 µM [inhibitor, partial curve, poor fit]",
O=C(CSc1nnc(-c2ccccc2)o1)N1CCCC1,"inconclusive: 13.1 µM [inhibitor, single point]",
